Assay results as given in PMC9940370.
No constants are given. Whether binding was seen depends on the method and setting. Binding seen in cells or lysates may run through a third protein. Some binding calls cover weakened binding; strength is not graded here. For some assays here: Where a sequence is shown, tags or fusion partners need not be part of it.

Amino acid sequences for entries named in this document (tags omitted).
UniProt Q9H0U4: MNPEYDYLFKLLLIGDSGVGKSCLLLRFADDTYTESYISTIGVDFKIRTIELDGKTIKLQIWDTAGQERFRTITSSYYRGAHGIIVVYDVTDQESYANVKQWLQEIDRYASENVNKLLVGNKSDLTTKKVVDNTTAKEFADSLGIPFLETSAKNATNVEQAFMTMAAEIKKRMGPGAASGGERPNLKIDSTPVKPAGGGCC
UniProt P07355: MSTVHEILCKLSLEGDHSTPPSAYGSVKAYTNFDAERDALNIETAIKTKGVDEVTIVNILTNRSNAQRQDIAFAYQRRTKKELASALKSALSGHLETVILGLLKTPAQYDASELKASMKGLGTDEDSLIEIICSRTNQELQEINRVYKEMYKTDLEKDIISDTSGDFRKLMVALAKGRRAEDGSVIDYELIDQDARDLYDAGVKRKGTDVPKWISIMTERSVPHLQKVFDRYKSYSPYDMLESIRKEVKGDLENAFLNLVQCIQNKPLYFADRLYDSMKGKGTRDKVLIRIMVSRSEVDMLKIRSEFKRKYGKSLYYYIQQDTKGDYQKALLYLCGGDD

Tests used:
[1] = molecular target: Flag-tagged Rab1b (Flag-Rab1b) (UniProt Q9H0U4); test: co-IP; lysates of MDA-MB-231 cells stably expressing Flag-tagged proteins (Fig. 5e, Fig. 7b-c); the precipitating antibody is not stated for these panels
[2] = molecular target: T1, Flag-tagged AQP1 (Flag-AQP1) (human) (UniProt P29972); test: co-IP; whole cell lysates of Flag-AQP1/MDA-MB-231 cells, 500 µg protein with anti-ANXA2 or anti-AQP1 or control IgG at 4 °C overnight, protein A beads, western blot
T1 sequence: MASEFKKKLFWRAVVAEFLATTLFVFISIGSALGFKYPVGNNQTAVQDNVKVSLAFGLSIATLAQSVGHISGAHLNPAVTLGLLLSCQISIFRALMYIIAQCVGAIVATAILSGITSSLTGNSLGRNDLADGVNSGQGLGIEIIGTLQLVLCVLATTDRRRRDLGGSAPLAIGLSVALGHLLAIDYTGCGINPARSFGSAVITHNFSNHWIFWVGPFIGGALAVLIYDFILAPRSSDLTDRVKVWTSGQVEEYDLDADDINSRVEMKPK

[3] = molecular target: T1, Flag-tagged AQP1 (Flag-AQP1) (human); test: co-IP; Flag immunoprecipitation: cell lysate (IP lysis buffer, protease inhibitors) incubated with anti-flag M2 affinity gel at 4 °C overnight, eluted with 3 × flag peptides, western blot
[4] = molecular target: Flag-tagged ANXA2 (Flag-ANXA2) (UniProt P07355); test: co-IP; lysates of MDA-MB-231 cells stably expressing Flag-tagged proteins (Fig. 5e, Fig. 7b-c); the precipitating antibody is not stated for these panels

binding [1] | binding [2] | binding [3] | binding [4] | Substance
binds | binds | binds |  | ANXA2 (endogenous, MDA-MB-231 cells) (from UniProt P07355 1-339)
 |  | binds | binds | Rab1b (endogenous, MDA-MB-231 cells) (from UniProt Q9H0U4 1-201)
